Test results reported in the supplement of paper PMC4635364.
Structures can show the parent of a compound that is named as a salt. The list shows a part of the results. This data set is noisy: repeats of one test often differ as much as different tests do.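 Human fetal ventral-midbrain neural progenitor line ReNCell VM, differentiated without mitogens. Images stained for doublecortin (early neurons) or tyrosine hydroxylase (dopaminergic neurons) were scored by blinded raters against untreated wells (0 = no change). Repeats and both raters were averaged, and compounds averaging 2 or higher were picked as hits for retesting.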

system: ReNCell VM; experiment: dopaminergic neuron differentiation score (TH+ cell fraction vs untreated, manual image score) (score (0 to 3)); higher = more TH+ dopaminergic neuron differentiation; conditions: library: Tocriscreen; 2 uM; 4 weeks; BDNF 10 ng/ml + GDNF 10 ng/ml

SMILES	dopaminergic neuron differentiation score
Cc1ccc2c(c1)C1(CCN(CCc3nc(-c4ccccc4)oc3C)CC1)OC(=O)N2	inactive: 0
c1ccc(C2CNCc3ccccc32)cc1 (centres undefined) [4-Phenyl-1,2,3,4-tetrahydroisoquinoline hydrochloride]	inactive: 0
Clc1ccc(C2=CCCC3CCC2N3)cn1 (centres undefined) [UB 165 fumarate]	inactive: 0
C#CCOC(=O)C1=CCCN(C)C1 [Arecaidine propargyl ester tosylate]	inactive: 0
